Experimental data from patent US20210137126A1 (INSTITUT NATIONAL DES SCIENCES APPLIQUEES DE LYON, priority 2018, published 2021).
Where a sequence shows no end group, the ends are not given.

Assay: peptide synthesis
Conditions: oxidative folding step, on reduced peptide (10 mg), several disulfide bridges, sequence written open

In the case of “DFDPTEFKGPFPTIEICSKYCAVVCNYTSRPCYCVEAAKERDQWFPYCYD (listed as Acyrthosiphon pisum)”, the oxidative folding yield is reported as 22%.
